Test results reported in PMC6035183, “ETS transcription factors induce a unique UV damage signature that drives recurrent mutagenesis in melanoma”.

Assays:
[1] = target: T1, ETS1 (ETS1ΔN280) (UniProt P27577); assay: footprinting (UV photofootprint, T4 endonuclease V); conditions: 25 mM Tris-Cl pH 7.9, 10% glycerol, 6 mM MgCl2, 0.5 mM EDTA, 60 mM KCl, 0.5 mM DTT, 200 ug/ml BSA, 40 ul, 40 min on ice, 8% native PAGE, recombinant protein
T1 sequence (looked up, limits assumed): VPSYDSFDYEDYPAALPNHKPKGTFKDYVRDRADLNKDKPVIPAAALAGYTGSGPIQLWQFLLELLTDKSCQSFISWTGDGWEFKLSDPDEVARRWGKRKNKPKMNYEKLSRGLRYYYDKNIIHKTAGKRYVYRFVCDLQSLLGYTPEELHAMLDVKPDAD

[2] = target: T1, ETS1 (ETS1ΔN280); assay: EMSA; conditions: 25 mM Tris-Cl pH 7.9, 10% glycerol, 6 mM MgCl2, 0.5 mM EDTA, 60 mM KCl, 0.5 mM DTT, 200 ug/ml BSA, 40 ul, 40 min on ice, 8% native PAGE, recombinant protein

| Sequence | binding result ([1]; CPD induction at motif-1 (site #1) abolished, 5'-biotin on S18, label: 5'-32P on S17) | binding result ([2]; significantly reduced binding at low ETS1, 5'-biotin on S18, label: 5'-32P on S17) | binding result ([1]; CPD induction at motif-2 (sites #2, #3) abolished, 5'-biotin on S20, label: 5'-32P on S19) | binding result ([2]; shift pattern altered at higher ETS1, low-affinity motif-2 lost, motif-1 intact, 5'-biotin on S20, label: 5'-32P on S19) |
| --- | --- | --- | --- | --- |
| CTCGACTTGAGGTTCACCCAGCATTTCCTCTTCCCTGTT (double strand) [SDHD-mt1] | binds more weakly | binds more weakly | – | – |
| CTCGACTTCCGGTTCACCCAGCATTTGATCTTCCCTGTT (double strand) [SDHD-mt2] | – | – | binds more weakly | binds more weakly |

A weaker result is weaker than the reference pair of the same experiment. Protein sequences can lack the tags named with them.
